Measured values published in publication PMC8840930.
No constants are given. Whether binding was seen depends on the method and setting. In cells and extracts the contact can be indirect. Some results given as binding are weak or reduced against the parent protein; the word gives no strength. Tags and fused reporters may be left off the sequences shown.

Biological target: T1, 3xHA-PTPN18, Q99952
T1 chain: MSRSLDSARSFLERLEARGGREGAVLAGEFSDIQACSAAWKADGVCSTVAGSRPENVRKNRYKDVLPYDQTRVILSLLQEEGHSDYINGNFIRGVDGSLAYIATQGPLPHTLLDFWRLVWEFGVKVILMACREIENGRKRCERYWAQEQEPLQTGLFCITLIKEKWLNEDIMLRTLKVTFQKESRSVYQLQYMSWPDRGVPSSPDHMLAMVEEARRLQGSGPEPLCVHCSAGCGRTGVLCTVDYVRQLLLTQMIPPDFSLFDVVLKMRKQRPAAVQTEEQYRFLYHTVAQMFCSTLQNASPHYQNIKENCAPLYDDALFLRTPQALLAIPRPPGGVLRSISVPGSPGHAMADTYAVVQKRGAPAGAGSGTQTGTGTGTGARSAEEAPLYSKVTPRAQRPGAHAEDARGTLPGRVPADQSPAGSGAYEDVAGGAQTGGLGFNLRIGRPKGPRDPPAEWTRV
Test: co-IP; HEK293 cells transfected with PSTPIP1 (wild type or mutant) and 3xHA-PTPN12 or 3xHA-PTPN18; IP anti-HA, immunoblot with PSTPIP1 antibody; TNE lysis buffer with 1% NP-40
Settings: remark: other sources report otherwise

- binding: binds
B1: PSTPIP1-V5 wild type, O43586 1-416 (protein)
chain: MMPQLQFKDAFWCRDFTAHTGYEVLLQRLLDGRKMCKDMEELLRQRAQAEERYGKELVQIARKAGGQTEINSLRASFDSLKQQMENVGSSHIQLALTLREELRSLEEFRERQKEQRKKYEAVMDRVQKSKLSLYKKAMESKKTYEQKCRDADDAEQAFERISANGHQKQVEKSQNKARQCKDSATEAERVYRQSIAQLEKVRAEWEQEHRTTCEAFQLQEFDRLTILRNALWVHSNQLSMQCVKDDELYEEVRLTLEGCSIDADIDSFIQAKSTGTEPPAPVPYQNYYDREVTPLTSSPGIQPSCGMIKRFSGLLHGSPKTTSLAASAASTETLTPTPERNEGVYTAIAVQEIQGNPASPAQEYRALYDYTAQNPDELDLSAGDILEVILEGEDGWWTVERNGQRGFVPGSYLEKL
